Results are given in words; binding and its absence hold for the method and conditions named. In cells and extracts the contact can be indirect. A yes stands for co-enrichment or nearness to the bait. Other partners may have been found. For some of these results: A no says only that the protein was not detected with the bait. Sequences can lack the tags named with a protein.
Assays:
[1] = target: T1, p110δ with a C-terminal AviTag (p110δ-AviTag) (mouse) (UniProt O35904); test: affinity purification with mass spectrometry; as a3, CD4+ T cell blasts left unstimulated
T1 sequence (chain, biotin on the AviTag (biotinylated in vivo by BirA)): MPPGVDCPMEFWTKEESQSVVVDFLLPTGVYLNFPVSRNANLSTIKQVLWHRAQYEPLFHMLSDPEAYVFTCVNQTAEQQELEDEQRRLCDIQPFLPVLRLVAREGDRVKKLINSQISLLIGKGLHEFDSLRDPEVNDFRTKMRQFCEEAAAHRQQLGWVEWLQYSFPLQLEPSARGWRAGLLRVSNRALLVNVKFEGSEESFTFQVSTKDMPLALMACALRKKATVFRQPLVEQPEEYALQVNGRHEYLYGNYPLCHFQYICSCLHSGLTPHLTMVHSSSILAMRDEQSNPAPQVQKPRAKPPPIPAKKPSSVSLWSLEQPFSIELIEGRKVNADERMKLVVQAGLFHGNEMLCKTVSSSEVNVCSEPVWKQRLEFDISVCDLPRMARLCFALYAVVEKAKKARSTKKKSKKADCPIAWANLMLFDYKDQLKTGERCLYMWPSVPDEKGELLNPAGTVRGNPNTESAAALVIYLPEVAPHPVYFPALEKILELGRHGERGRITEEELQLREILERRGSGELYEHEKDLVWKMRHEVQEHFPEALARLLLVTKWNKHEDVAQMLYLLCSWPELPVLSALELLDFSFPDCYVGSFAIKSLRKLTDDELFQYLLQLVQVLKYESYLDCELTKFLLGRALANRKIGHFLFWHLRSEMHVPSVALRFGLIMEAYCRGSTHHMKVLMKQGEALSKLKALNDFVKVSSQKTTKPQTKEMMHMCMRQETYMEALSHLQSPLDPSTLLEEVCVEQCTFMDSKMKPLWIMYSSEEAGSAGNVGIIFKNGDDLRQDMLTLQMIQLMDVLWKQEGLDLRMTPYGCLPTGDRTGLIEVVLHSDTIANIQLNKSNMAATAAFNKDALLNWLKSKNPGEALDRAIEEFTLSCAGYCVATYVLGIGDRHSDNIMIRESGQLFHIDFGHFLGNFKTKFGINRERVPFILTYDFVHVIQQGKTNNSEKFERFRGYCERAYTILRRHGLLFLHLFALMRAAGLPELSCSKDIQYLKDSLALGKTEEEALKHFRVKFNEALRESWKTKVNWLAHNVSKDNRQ

[2] = target: T1, p110δ with a C-terminal AviTag (p110δ-AviTag) (mouse); test: affinity purification with mass spectrometry; as a5, CD4+ T cell blasts left unstimulated
[3] = target: T1, p110δ with a C-terminal AviTag (p110δ-AviTag) (mouse); test: affinity purification with mass spectrometry; p110δ-AviTag purified on streptavidin beads from TCR-stimulated CD4+ T cell blasts, separated by SDS-PAGE; the 110-120 kDa gel slice analysed by label-free nLC-MS/MS
[4] = target: T1, p110δ with a C-terminal AviTag (p110δ-AviTag) (mouse); test: affinity purification with mass spectrometry; streptavidin beads capture biotinylated p110δ-AviTag from lysates of CD4+ T cell blasts stimulated for 1 min by CD3-CD4-crosslinking (unstimulated cells compared); control purifications from BirA^Tg cells; TMT-labelled nLC-MS/MS, three independent experiments; specific: >1.5-fold enriched, p < 0.05

B1: BCAP (adaptor protein, product of Pik3ap1) (protein, UniProt Q9EQ32 1-811)
chain: MAASGWGRGCDILIFYSPDAEEWCQYLQDLFVSCRQVRSQKTQTYRLVPDASFSAQDLWVFRDARCVLVLLSAGLVGCFGQPGLLPMLQRACHPPQRVVRLLCGVQPGDEDFQAFFPDWAHWQEMTCDDEPETYLAAVRKAISEDSGCDSVTDTEPEDERELPFSKQTNLPPEISPGNLMVVQPDRIRCGAETTVYIIVRCKLDEKVSTEAEFSPEDSPSIRVEGTLENEYTVSVKAPDLSSGNVSLKVYSGDLVVCETTVSYYTDMEEIGNLLSSAANPVEFMCQAFKIVPYNTETLDKLLTESLKNNIPASGLHLFGINQLEEDDMMTNQRDEELPTLLHFAAKYGLKNLTALLLTCPGALQAYSVANKHGHYPNTIAEKHGFRDLRQFIDEYVETVDMLKTHIKEELMQGEEADDVYESMAHLSTDLLMKCSLNPGCDDELYESMAAFAPAATEDLYVEMLQASAGNPVSGESFSRPTKDSMIRKFLEGNSVKPASWEREQHHPYGEELYHIVDEDETFSVDLANRPPVPVPRPEASAPGPPPPPDNEPYISKVFAEKSQERLGNFYVSSESIRKEPLVRPWRDRPPSSIYDPFAGMKTPGQRQLITLQEQVKLGIVNVDEAVLHFKEWQLNQKKRSESFRFQQENLKRLRESITRRRKEKPKSGKHTDLEITVPIRHSQHLPEKVEFGVYESGPRKSVLPARTELRRGDWKTDSMSSTASSTSNRSSTRSLLSVSSGMEGDNEDNEIPEITRSRGPGPTQVDGAPVVTGTPVGTLERPPRVPPRAASQRPLTRESFHPPPPVPPRGR
modifications: phosphotyrosine after TCR stimulation (residues not told)
binding [1]: no binding (only cells without TCR stimulation)
binding [2]: no binding (only cells without TCR stimulation)
binding [3]: binds
binding [4]: binds
